Binding data for one molecule are collected here from patent US20190367606A1 (CENTRE FOR DRUG RESEARCH AND DEVELOPMENT, published 2019).

The assay addresses T1, hPodocalyxin/Fc fusion protein (human) (UniProt O00592).
T1 sequence (looked up): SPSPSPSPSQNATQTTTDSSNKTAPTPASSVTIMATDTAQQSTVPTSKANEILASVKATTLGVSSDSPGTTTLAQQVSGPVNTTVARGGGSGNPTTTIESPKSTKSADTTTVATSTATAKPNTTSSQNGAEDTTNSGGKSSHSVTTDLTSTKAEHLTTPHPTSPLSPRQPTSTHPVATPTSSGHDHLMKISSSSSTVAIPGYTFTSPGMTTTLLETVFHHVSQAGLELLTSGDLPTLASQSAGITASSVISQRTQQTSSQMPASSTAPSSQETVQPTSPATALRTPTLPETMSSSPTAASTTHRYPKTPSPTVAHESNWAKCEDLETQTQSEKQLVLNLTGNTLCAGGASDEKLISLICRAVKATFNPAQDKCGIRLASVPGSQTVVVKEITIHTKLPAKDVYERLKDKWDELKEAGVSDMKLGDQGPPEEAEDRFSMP
Kind of assay: ELISA, rabbit B cell supernatants. For orientation: ELISA stands for enzyme-linked immunosorbent assay.

Results are given in words; binding and its absence hold for the method and conditions named. Some entries that bind do so weakly or less than the wild type. Where a sequence is shown, tags or fusion partners need not be part of it.

B1: Rabbit Podo 83 (Parental rabbit antibody) (antibody, V domains shown)
VH: QSLAESGGRLVTPGTPLTLTCTASGIDLSSYAMGWVRQAPGKGLEYIGFIYASGSIFYASWAKGRFTISKTSSTTVDLKMTSLTTEDTATYFCARAGYYFGGNYDLNLWGQGTLVTVSS
VL: DIVLTQTPASVEVAVGGTVTIKCQASQSISNYLAWYQRKPGQPPRLLIYRASTLASGVSSRFKGSGSGTQFTLTISGVECADAATYYCQQGYVSNNLDNIFGGGTEVVVK
notes: Rabbit constant regions; also called Rb Podo 83 (Rb Constant Region); rabbit Podo-83 (Ab-1)
Regarding B1, the binding entry was “binds”.
